From article PMC10991284
No constants are given. Whether binding was seen depends on the method and setting. Binding seen in cells or lysates may run through a third protein. Some results given as binding are weak or reduced against the parent protein; the word gives no strength.

The chains behind the UniProt entries cited, without tags or fusion partners.
UniProt O14686: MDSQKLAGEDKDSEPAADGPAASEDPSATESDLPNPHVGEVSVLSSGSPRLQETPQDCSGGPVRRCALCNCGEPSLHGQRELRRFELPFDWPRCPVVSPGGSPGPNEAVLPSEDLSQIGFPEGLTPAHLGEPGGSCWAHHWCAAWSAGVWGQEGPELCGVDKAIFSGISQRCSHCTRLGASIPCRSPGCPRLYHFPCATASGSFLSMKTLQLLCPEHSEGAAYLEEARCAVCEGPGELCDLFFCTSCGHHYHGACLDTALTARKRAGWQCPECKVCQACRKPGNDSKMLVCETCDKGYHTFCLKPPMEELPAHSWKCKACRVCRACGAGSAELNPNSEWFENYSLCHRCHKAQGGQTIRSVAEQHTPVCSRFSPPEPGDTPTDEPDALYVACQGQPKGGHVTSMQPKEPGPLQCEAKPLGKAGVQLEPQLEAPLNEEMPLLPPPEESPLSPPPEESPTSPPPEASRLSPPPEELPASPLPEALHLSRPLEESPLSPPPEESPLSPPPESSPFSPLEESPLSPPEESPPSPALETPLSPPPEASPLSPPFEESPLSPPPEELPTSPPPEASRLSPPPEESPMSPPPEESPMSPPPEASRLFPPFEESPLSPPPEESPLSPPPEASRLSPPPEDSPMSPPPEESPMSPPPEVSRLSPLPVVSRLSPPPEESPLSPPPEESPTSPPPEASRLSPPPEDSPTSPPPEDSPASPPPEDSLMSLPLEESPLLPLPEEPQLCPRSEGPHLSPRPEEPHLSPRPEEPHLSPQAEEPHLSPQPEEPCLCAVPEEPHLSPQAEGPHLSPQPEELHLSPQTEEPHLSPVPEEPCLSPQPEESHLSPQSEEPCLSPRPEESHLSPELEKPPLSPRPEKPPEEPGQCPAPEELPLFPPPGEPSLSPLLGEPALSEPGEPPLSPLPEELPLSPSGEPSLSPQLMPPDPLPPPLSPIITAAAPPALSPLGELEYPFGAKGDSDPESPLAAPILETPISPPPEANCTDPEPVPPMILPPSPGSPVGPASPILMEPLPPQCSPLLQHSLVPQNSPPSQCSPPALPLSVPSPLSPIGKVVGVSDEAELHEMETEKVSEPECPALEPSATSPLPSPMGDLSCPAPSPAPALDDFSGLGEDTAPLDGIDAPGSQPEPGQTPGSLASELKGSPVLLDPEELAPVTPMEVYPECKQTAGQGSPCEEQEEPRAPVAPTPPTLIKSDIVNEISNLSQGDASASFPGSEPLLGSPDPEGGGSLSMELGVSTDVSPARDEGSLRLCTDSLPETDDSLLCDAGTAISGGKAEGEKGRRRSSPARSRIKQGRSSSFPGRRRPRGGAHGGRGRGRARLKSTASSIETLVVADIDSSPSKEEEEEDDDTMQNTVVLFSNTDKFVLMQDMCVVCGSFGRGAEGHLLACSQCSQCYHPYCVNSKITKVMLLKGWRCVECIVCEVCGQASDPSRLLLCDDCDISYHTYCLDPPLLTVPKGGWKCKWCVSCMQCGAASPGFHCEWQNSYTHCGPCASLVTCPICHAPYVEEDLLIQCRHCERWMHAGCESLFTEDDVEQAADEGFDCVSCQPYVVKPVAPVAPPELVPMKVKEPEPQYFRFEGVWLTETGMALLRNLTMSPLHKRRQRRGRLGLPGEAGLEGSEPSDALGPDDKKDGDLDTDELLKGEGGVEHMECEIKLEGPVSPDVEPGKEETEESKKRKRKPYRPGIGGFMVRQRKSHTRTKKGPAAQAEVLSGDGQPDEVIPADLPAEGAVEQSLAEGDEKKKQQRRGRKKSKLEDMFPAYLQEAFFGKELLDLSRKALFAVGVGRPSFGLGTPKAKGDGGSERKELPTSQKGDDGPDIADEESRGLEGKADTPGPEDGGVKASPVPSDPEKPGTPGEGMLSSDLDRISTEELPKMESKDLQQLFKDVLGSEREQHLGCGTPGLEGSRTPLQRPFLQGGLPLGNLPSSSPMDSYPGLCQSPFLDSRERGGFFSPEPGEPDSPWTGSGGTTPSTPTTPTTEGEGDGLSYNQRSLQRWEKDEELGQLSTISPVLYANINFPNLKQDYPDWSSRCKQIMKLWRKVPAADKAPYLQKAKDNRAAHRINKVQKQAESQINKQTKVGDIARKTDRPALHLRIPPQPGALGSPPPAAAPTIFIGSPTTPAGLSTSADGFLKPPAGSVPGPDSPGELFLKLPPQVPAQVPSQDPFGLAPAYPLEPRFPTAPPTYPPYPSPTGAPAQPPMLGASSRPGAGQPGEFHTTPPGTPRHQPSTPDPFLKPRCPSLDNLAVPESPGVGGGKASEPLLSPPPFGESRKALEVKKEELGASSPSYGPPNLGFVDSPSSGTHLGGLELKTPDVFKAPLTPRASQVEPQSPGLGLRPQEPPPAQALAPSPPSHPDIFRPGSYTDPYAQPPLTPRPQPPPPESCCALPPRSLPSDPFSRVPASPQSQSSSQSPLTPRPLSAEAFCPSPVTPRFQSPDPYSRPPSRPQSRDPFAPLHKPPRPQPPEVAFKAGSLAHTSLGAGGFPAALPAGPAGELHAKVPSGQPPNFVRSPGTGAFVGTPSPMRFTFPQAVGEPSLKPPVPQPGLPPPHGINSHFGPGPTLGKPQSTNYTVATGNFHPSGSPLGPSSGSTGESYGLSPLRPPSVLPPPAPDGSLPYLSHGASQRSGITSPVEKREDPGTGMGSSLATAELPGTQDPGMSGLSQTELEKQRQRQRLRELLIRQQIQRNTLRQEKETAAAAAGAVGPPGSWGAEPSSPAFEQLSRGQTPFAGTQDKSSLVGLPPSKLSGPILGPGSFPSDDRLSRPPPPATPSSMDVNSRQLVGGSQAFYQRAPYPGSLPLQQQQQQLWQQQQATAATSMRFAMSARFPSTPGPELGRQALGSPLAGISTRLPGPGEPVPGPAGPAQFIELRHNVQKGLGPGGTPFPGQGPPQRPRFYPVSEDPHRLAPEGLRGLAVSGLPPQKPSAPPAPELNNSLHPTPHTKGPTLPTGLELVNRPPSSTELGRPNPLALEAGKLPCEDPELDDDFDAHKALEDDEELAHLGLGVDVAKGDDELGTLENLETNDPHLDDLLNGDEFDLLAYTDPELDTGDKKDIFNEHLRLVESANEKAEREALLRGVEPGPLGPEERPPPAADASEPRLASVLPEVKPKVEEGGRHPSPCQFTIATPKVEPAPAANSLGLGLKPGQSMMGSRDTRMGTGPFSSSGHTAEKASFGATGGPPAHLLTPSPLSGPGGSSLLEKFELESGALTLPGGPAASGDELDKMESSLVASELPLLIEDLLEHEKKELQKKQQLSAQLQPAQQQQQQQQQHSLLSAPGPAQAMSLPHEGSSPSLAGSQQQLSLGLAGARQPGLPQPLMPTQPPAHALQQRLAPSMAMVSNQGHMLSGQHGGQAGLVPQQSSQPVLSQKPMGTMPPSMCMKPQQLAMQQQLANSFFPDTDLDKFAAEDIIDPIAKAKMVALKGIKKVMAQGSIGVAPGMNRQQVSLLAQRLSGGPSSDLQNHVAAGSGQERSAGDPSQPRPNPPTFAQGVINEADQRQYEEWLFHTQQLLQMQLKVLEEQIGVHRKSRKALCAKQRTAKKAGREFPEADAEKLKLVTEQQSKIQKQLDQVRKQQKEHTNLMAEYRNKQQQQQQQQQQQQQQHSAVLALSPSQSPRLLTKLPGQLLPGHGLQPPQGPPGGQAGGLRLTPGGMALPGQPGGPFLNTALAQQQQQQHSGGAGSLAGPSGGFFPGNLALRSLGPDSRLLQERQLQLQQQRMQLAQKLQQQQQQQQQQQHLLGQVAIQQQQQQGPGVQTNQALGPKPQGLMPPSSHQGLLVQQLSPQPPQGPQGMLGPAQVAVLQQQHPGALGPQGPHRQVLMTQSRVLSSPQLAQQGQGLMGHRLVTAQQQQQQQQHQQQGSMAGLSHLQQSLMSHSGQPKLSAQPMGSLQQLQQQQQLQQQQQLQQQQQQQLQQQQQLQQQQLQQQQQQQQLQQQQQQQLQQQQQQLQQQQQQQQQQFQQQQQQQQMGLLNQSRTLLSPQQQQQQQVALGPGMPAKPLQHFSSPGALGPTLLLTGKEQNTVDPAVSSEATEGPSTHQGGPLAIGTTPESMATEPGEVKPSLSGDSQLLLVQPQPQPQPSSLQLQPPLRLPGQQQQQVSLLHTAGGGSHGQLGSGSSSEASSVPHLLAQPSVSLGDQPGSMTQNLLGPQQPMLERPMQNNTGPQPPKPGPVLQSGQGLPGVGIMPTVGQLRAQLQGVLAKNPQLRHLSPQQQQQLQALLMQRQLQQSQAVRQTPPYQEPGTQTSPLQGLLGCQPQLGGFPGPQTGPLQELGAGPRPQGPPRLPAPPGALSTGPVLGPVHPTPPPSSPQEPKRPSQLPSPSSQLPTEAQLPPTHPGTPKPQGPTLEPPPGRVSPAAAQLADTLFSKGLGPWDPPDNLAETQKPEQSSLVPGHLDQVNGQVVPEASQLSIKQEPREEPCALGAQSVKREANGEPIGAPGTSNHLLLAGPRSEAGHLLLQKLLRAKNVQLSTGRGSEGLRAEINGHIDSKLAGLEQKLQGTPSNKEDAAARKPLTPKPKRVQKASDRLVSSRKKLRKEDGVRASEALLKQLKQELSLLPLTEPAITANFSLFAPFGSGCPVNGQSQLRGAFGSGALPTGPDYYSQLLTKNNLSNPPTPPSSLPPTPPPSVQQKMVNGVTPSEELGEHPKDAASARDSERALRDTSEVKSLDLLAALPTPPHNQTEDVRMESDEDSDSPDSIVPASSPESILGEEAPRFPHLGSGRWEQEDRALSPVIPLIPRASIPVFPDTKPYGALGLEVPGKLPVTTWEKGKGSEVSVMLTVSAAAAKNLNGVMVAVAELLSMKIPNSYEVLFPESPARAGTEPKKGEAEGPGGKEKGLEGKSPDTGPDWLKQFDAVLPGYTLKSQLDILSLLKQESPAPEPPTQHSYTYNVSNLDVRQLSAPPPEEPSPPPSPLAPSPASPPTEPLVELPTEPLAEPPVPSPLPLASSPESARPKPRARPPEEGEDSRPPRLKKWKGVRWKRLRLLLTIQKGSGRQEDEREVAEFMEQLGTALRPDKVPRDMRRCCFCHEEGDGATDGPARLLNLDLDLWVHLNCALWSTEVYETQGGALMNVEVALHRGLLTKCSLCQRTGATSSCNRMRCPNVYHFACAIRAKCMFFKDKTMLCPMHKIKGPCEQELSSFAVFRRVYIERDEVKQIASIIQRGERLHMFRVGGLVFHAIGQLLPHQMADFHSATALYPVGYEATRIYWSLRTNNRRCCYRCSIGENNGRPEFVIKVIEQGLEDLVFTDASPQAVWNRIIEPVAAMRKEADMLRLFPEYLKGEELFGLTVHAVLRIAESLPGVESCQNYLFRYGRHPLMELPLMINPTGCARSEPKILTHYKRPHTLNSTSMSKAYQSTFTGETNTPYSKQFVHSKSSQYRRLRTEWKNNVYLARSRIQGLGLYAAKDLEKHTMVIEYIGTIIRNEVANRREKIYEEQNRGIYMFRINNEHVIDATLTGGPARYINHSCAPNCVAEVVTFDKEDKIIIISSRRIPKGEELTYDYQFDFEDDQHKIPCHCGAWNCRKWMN

Target: KMT2D (human (endogenous in OCI-Ly7 and SU-DHL4)) (UniProt O14686)
Assay: co-IP; endogenous proteins in nuclear extracts of OCI-Ly7 and SUDHL4; 150 mM KCl, 0.1% IGEPAL CA-630; primary antibody (anti-CREBBP or anti-KMT2D) overnight, DynaBeads protein A 1.5 h, 6 washes, immunoblot; control antibody

binding: binds
Substance: CREBBP (from UniProt Q92793 1-2442)
